According to article PMC6437049:

Target: T1, A. fumigatus G protein-coupled receptor GprM (split-ubiquitin two-hybrid bait) (Aspergillus fumigatus) (UniProt B0YCP1)
T1 sequence: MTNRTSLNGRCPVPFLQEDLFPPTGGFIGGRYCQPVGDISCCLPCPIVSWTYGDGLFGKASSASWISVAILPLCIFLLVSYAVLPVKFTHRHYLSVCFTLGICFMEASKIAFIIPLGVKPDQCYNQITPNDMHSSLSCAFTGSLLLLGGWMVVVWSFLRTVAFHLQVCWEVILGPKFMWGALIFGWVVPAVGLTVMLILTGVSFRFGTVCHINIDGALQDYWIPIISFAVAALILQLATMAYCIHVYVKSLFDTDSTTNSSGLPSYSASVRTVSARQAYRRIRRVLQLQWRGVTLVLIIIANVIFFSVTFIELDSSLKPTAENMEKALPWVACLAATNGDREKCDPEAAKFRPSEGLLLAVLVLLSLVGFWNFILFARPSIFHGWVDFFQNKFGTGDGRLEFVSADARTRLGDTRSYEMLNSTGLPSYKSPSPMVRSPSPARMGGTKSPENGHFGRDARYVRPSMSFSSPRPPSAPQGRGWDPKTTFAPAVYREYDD
Assay: two-hybrid; split-ubiquitin membrane-based yeast two-hybrid; GprM as bait (pTMBV4), Gα proteins as preys (pDL2XN), S. cerevisiae NMY32; serial dilutions spotted on selective media, 3 days at 30°C

A. fumigatus Gα protein GpaC (split-ubiquitin two-hybrid prey) (Aspergillus fumigatus)
binding: no binding

A. fumigatus Gα protein GpaB (split-ubiquitin two-hybrid prey) (Aspergillus fumigatus)
binding: no binding

These are yes or no findings as the source states them, for the method shown.
